{"sequences": {"note": "Chains of the proteins cited; added tags and fusions are not shown.", "UniProt P27361, whole entry": "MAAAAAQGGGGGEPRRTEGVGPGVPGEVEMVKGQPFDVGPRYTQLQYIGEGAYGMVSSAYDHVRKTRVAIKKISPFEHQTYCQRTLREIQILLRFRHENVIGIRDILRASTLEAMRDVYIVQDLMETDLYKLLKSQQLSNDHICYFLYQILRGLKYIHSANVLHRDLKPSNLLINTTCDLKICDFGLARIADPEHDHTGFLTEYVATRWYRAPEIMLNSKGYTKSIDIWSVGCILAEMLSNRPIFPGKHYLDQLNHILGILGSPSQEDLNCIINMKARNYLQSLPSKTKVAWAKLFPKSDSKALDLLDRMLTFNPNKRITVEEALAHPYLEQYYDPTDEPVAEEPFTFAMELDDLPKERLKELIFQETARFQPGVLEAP", "UniProt P28482, whole entry": "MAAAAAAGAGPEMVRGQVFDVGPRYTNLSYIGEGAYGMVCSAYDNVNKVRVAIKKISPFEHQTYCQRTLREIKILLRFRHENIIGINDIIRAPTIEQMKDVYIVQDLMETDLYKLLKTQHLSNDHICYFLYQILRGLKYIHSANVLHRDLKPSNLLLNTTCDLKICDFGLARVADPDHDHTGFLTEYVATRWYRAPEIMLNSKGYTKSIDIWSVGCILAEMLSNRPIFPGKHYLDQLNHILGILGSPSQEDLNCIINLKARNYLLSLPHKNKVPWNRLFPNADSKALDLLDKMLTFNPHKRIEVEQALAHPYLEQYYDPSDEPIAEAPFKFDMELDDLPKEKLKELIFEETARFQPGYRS"}, "source": "patent US11466013B2", "about": "(Betta Pharmaceuticals Co., LTD, priority 2018, dated 2022)", "key": {"ERK1": {"target": "ERK1 (Homo sapiens, UniProt P27361)", "experiment": "Kinase assay (Caliper, FAM-labeled peptide), ERK1", "format": "biochemical", "experimental": "(§1) The compound was diluted to the desired concentration with DMSO, transferred 100 μL to a 96-well plate, and performed a gradient dilution 10 μL of compound from each well was taken and mixed with 90 μL of kinase buffer, and then transferred 5 μL from each well to a 384-well plate. Kinase and FAM-labeled peptide and ATP were added to 1× kinase alkaline buffer to obtain 2.5× enzyme solution and 2.5× peptide solution, 10 μL of 2.5× enzyme solution was added to the 384-well assay plate. After incubating for 10 minutes at room temperature, 10 μL of 2.5× peptide solution was added to the 384-well plate. After reacting for a specific time at […], 25 μL of termination buffer was added to stop reaction. After reading the collected data on Caliper, the data was converted to inhibition percentage. Inhibition percentage=(maximum value−conversion value)/(maximum value−minimum value)*100.\n(§2) The “maximum” is the DMSO control, the “minimum” indicates the low control.\n(§3) Graphpad Prism software was used to perform curve fitting and obtain IC50 value."}, "ERK2": {"target": "ERK2 (Homo sapiens, UniProt P28482)", "experiment": "Kinase assay (Caliper, FAM-labeled peptide), ERK2", "format": "biochemical", "experimental": "as §1, §2, §3"}, "COLO205 cells": {"test_system": "COLO205 cells", "experiment": "Cell proliferation assay (COLO205), Cell-titer Glo", "format": "cell-based", "settings": "120 h incubation", "experimental": "COLO205 cells were spread into a 96-well plate at 135 μL/well at 2000 cells. After incubating overnight, compound solutions of gradient concentration was prepared, and added 15 μL of DMSO solution of the test compound of each concentration to the cells of each well. The final concentration of the compound was 30000, 10000, 3333.3, 1111.1, 370.4, 123.5, 41.2, 13.7, 4.6, 0 nM (the final concentration of DMSO was 0.5%). 5% CO2 was incubated for 120 h at 37° C. 50 μL of Cell-titer Glo working solution was added to each well, shaked and mixed, and incubated at room temperature for 10 minutes. The multi-functional microplate reader read the luminescence value, and converted the luminescence value reading into inhibition percentage. Inhibition percentage=(maximum value−reading)/(maximum value−minimum value)*100.\nThe “maximum value” was the DMSO control, the “minimum value” indicates the cell-free control group.\nas §3"}}, "note": "For at least one compound, name, drawing or mass did not settle the structure."}
{"smiles": "CC(C)Nc1cc(-c2cn(C)c(C(=O)N[C@H](CO)c3cccc(Cl)c3)n2)c(Cl)cn1", "note": "[Example D3, (S)-4-(5-chloro-2-(isopropylamino)pyridin-4-yl)-1H-(1-(3-chlorophenyl)-2-hydroxyethyl)-1-methyl-1H-imidazole-2-carboxamide, reference compound]", "values": [{"measurement": "IC50(nM) ERK1", "setting": "ERK1", "value": 163.4, "unit": "nM"}, {"measurement": "IC50(nM) ERK2", "setting": "ERK2", "value": 115.5, "unit": "nM"}, {"measurement": "IC50", "setting": "COLO205 cells", "value": "> 10", "unit": "µM"}]}
